Measured values taken from patent US7157620B2, “Enhanced transformation and regeneration of transformed embryogenic pine tissue” (Mead Westvaco Corporation, priority 2000, dated 2007).
For at least one compound, name, drawing or mass did not settle the structure.

Tested on: non-transformed P. radiata cells
Experiment: P. radiata selection medium
Format: cell-based, Pinus radiata
Conditions: 15 mg/l in maintenance medium

CN[C@@H]1[C@@H](O)[C@@H](O[C@@H]2[C@@H](O)[C@H](O[C@H]3O[C@H]([C@@H](C)O)[C@@H](O)[C@H](O)[C@H]3N)[C@@H](N)C[C@H]2N)OC[C@]1(C)O [GENETICIN]
effect on the growth of non-transformed P. radiata cells: inhibitory
